The list is a part of this screen's results and no random one: it gathers some chemical classes. Not every dose and run of a compound is shown. T/C gives the treated animals as a percentage of the vehicle group. Where survival is the endpoint, this PubChem deposit counts one and a half times the control or more as active, and values a quarter to a half above the control carry no call in these data; other NCI protocols may use other cut-offs. Schedule codes are those of the source, taken here to give the interval after Q, in days (D) or hours (H), and the number of doses after X. Some T/C values are marked as having no survivor count here; that says nothing about deaths at the dose. Some doses were run more than once; their values stand side by side, smallest first.
System: CD2F1 mice, L1210 leukemia ip, survival T/C
Test: NCI In Vivo Anticancer Drug Screen. Data for tumor model L1210 Leukemia (intraperitoneal) in CD2F1 (CDF1) mice
Details: schedule: Q01DX009 (ip), higher T/C = longer survival
Method: The antitumor activity of compounds was measured in mice bearing transplantable tumors. Survival or tumor size were measured and the results are expressed as the measurement made in the treated group (T) divided by the measurement made in the vehicle treated control group (C). The tumor model used in this assay is L1210 Leukemia (intraperitoneal) in CD2F1 (CDF1) mice

With CC(=O)OCC12CC(O)C(C)=CC1OC1C(O)C(OC(C)=O)C2(C)C12CO2 (stereo not given) the T/C (T/C endpoint: mean survival time, dose: 0.31 mg/kg/injection, vehicle: saline) was 106 % of control [survivor count not shown], the T/C (T/C endpoint: mean survival time, dose: 0.62 mg/kg/injection, vehicle: saline) was 104 % of control [survivor count not shown] and the T/C (T/C endpoint: mean survival time, dose: 0.63 mg/kg/injection, vehicle: saline) was 112 % of control [survivor count not shown]. For the same molecule, the T/C (T/C endpoint: mean survival time, dose: 1.25 mg/kg/injection, vehicle: saline) was 108 [survivor count not shown] and 114 % of control [survivor count not shown], the T/C (T/C endpoint: mean survival time, dose: 2.5 mg/kg/injection, vehicle: saline) was 109 [survivor count not shown] and 115 % of control [survivor count not shown] and the T/C (T/C endpoint: mean survival time, dose: 5.0 mg/kg/injection, vehicle: saline) was 111 % of control [survivor count not shown].
With CC(=O)OC[C@]12C[C@H](OC(=O)CC(C)C)C(C)=C[C@H]1OC1[C@H](O)[C@@H](OC(C)=O)[C@@]2(C)[C@@]12CO2 the T/C (T/C endpoint: mean survival time, dose: 0.17 mg/kg/injection, vehicle: Klucel (hydroxypropylcellulose) (HPC)) was 107 % of control [survivor count not shown], the T/C (T/C endpoint: mean survival time, dose: 0.26 mg/kg/injection, vehicle: Klucel (hydroxypropylcellulose) (HPC)) was 122 % of control [survivor count not shown] and the T/C (T/C endpoint: median survival time, dose: 0.25 mg/kg/injection, vehicle: Klucel (hydroxypropylcellulose) (HPC)) was 134 % of control [survivor count not shown]. For the same molecule, the T/C (T/C endpoint: median survival time, dose: 0.5 mg/kg/injection, vehicle: Klucel (hydroxypropylcellulose) (HPC)) was 134 % of control [survivor count not shown].
In the case of CC1=CC2OC3CC4OC(=O)/C=C/C=C/C(C(C)O)OCC/C(C)=C/C(=O)OCC2(CC1)C4(C)C31CO1 (stereo not given), the T/C (T/C endpoint: mean survival time, dose: 0.78 mg/kg/injection, vehicle: saline + Tween-80 + alcohol) is reported as 108 [survivor count not shown] and 112 % of control [survivor count not shown], the T/C (T/C endpoint: mean survival time, dose: 1.56 mg/kg/injection, vehicle: saline + Tween-80 + alcohol) is reported as 120 [survivor count not shown] and 122 % of control [survivor count not shown] and the T/C (T/C endpoint: mean survival time, dose: 3.12 mg/kg/injection, vehicle: saline + Tween-80 + alcohol) is reported as 122 [survivor count not shown] and 123 % of control [survivor count not shown]. For the same molecule, the T/C (T/C endpoint: mean survival time, dose: 6.25 mg/kg/injection, vehicle: saline + Tween-80 + alcohol) was 125 [survivor count not shown] and 131 % of control [survivor count not shown] and the T/C (T/C endpoint: mean survival time, dose: 12.5 mg/kg/injection, vehicle: saline + Tween-80 + alcohol) was 118 % of control [survivor count not shown].
With CC(=O)O[C@@H]1[C@@H](O)[C@H]2O[C@@H]3C=C(C)C(=O)[C@@H](O)[C@]3(CO)[C@]1(C)[C@]21CO1 the T/C (T/C endpoint: mean survival time, dose: 0.2 mg/kg/injection, vehicle: saline) was 102 % of control [survivor count not shown], the T/C (T/C endpoint: mean survival time, dose: 0.4 mg/kg/injection, vehicle: saline) was 101 % of control [survivor count not shown] and the T/C (T/C endpoint: mean survival time, dose: 0.8 mg/kg/injection, vehicle: saline) was 104 % of control [survivor count not shown]. For the same molecule, the T/C (T/C endpoint: mean survival time, dose: 1.6 mg/kg/injection, vehicle: saline) was 119 % of control [survivor count not shown].
For CC(=O)OC[C@]12CC(=O)C(C)=C[C@H]1O[C@@H]1C(=O)[C@@H](OC(C)=O)[C@@]2(C)[C@@]12CO2, the T/C (T/C endpoint: median survival time, dose: 0.12 mg/kg/injection, vehicle: water) was 111 % of control [survivor count not shown], the T/C (T/C endpoint: median survival time, dose: 0.25 mg/kg/injection, vehicle: water) was 112 [survivor count not shown], 113 [survivor count not shown], 115 [survivor count not shown], 134 % of control [survivor count not shown] and the T/C (T/C endpoint: median survival time, dose: 0.5 mg/kg/injection, vehicle: water) was 114 [survivor count not shown], 119 [survivor count not shown], 121 % of control [survivor count not shown]. The T/C (T/C endpoint: median survival time, dose: 1.0 mg/kg/injection, vehicle: water) was 112 [survivor count not shown], 123 [survivor count not shown], 132 % of control [survivor count not shown], the T/C (T/C endpoint: median survival time, dose: 2.0 mg/kg/injection, vehicle: water) was 133 [survivor count not shown], 134 [survivor count not shown], 138 % of control [survivor count not shown] and the T/C (T/C endpoint: median survival time, dose: 4.0 mg/kg/injection, vehicle: water) was 139 [survivor count not shown] and 159 % of control [survivor count not shown].
CC(O)C1/C=C/C=C/C(=O)OC2CC3OC4C5OC5(C)C(O)CC4(COC(=O)C(O)C(C)CCO1)C2(C)C31CO1 (stereo not given) was tested, and the T/C (T/C endpoint: median survival time, dose: 2.5 mg/kg/injection, vehicle: saline + alcohol) was 134 % of control [survivor count not shown], the T/C (T/C endpoint: median survival time, dose: 5.0 mg/kg/injection, vehicle: saline + alcohol) was 139 [survivor count not shown] and 141 % of control [survivor count not shown] and the T/C (T/C endpoint: median survival time, dose: 10.0 mg/kg/injection, vehicle: saline + alcohol) was 147 [survivor count not shown] and 150 % of control [survivor count not shown]. For the same molecule, the T/C (T/C endpoint: median survival time, dose: 20.0 mg/kg/injection, vehicle: saline + alcohol) was 168 [survivor count not shown] and 176 % of control [survivor count not shown] and the T/C (T/C endpoint: median survival time, dose: 40.0 mg/kg/injection, vehicle: saline + alcohol) was 141 [survivor count not shown] and 190 % of control [survivor count not shown].
With CC1=C[C@H]2O[C@@H]3C[C@H]4OC(=O)/C=C\C=C\C(C(C)O)OCC[C@@H](C)[C@H](O)C(=O)OC[C@@]2(CC1)[C@]4(C)[C@]31CO1 (stereo not given in full) the T/C (T/C endpoint: median survival time, dose: 37.5 micrograms/kg/injection, vehicle: saline with Tween-80) was 106 % of control [survivor count not shown], the T/C (T/C endpoint: median survival time, dose: 75.0 micrograms/kg/injection, vehicle: saline with Tween-80) was 102 % of control [survivor count not shown] and the T/C (T/C endpoint: median survival time, dose: 150.0 micrograms/kg/injection, vehicle: saline with Tween-80) was 100 % of control [survivor count not shown]. For the same molecule, the T/C (T/C endpoint: median survival time, dose: 300.0 micrograms/kg/injection, vehicle: saline with Tween-80) was 108 % of control [survivor count not shown].
In the case of CC1=CC2OC3CC4OC(=O)/C=C/C=C/C(C(C)O)OCC(O)C(C)CC(=O)OCC2(CC1O)C4(C)C31CO1 (stereo not given), the T/C (T/C endpoint: mean survival time, dose: 0.08 mg/kg/injection, vehicle: Klucel (hydroxypropylcellulose) (HPC)) is reported as 114 % of control [survivor count not shown], the T/C (T/C endpoint: mean survival time, dose: 0.16 mg/kg/injection, vehicle: Klucel (hydroxypropylcellulose) (HPC)) is reported as 106 % of control [survivor count not shown] and the T/C (T/C endpoint: mean survival time, dose: 0.31 mg/kg/injection, vehicle: Klucel (hydroxypropylcellulose) (HPC)) is reported as 117 % of control [survivor count not shown]. The T/C (T/C endpoint: mean survival time, dose: 0.62 mg/kg/injection, vehicle: Klucel (hydroxypropylcellulose) (HPC)) was 120 % of control [survivor count not shown] and the T/C (T/C endpoint: mean survival time, dose: 1.25 mg/kg/injection, vehicle: Klucel (hydroxypropylcellulose) (HPC)) was 123 % of control [survivor count not shown].
CC1=C[C@H]2O[C@@H]3[C@H](O)[C@@H](O)[C@](C)([C@@]2(CO)CC1)[C@@]31CO1 was tested, and the T/C (T/C endpoint: mean survival time, dose: 0.5 mg/kg/injection, vehicle: saline) was 106 [survivor count not shown], 110 [survivor count not shown], 115 [survivor count not shown], 120 % of control [survivor count not shown], the T/C (T/C endpoint: mean survival time, dose: 1.0 mg/kg/injection, vehicle: saline) was 112 [survivor count not shown] and 128 % of control [survivor count not shown] and the T/C (T/C endpoint: mean survival time, dose: 2.0 mg/kg/injection, vehicle: saline) was 116 [survivor count not shown], 121 [survivor count not shown], 126 [survivor count not shown], 131 % of control [survivor count not shown]. The T/C (T/C endpoint: mean survival time, dose: 4.0 mg/kg/injection, vehicle: saline) was 126 [survivor count not shown], 127 [survivor count not shown], 128 % of control [survivor count not shown], the T/C (T/C endpoint: mean survival time, dose: 8.0 mg/kg/injection, vehicle: saline) was 109 [survivor count not shown] and 120 % of control [survivor count not shown] and the T/C (T/C endpoint: mean survival time, dose: 16.0 mg/kg/injection, vehicle: saline) was 94 [survivor count not shown] and 101 % of control [survivor count not shown].

Reference: PubChem BioAssay AID256 (DTP/NCI, 2004)
